These are yes or no findings as the source states them, for the method shown. Binding seen in cells or lysates may run through a third protein. Binding calls can cover weak binding; strength is not graded here.
Experiments:
[1] = molecular target: isolated CCTL2 domain of WNK1 (EGFP-WNK1 1056-1217) (human) (UniProt Q9H4A3); test: co-IP; isolated CCTL1 or CCTL2 domain of WNK1 co-expressed with full-length TSC22D2 or TSC22D4, wild type or RΦ-motif mutants (fig. S8, E and F)
[2] = molecular target: isolated CCTL1 domain of WNK1 (EGFP-WNK1 450-600) (human) (UniProt Q9H4A3); test: as above

By UniProt entry, the sequences of proteins in these tests, tags left out. Where a name states a change or a piece, a line headed by the entry shows the natural chain unless it says otherwise. Residues count along the entry.
isolated CCTL1 domain of WNK1 (EGFP-WNK1 450-600) (Q9H4A3, residues 450-600): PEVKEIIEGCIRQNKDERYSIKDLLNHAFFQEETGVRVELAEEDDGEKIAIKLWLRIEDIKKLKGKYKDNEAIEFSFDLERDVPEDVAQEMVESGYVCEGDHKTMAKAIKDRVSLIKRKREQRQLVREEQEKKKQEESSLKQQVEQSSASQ
isolated CCTL2 domain of WNK1 (EGFP-WNK1 1056-1217) (Q9H4A3, residues 1056-1217): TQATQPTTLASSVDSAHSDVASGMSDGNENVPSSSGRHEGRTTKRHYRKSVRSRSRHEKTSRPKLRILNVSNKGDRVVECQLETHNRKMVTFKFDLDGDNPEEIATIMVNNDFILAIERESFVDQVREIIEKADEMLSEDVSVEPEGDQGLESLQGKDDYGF
UniProt O75157: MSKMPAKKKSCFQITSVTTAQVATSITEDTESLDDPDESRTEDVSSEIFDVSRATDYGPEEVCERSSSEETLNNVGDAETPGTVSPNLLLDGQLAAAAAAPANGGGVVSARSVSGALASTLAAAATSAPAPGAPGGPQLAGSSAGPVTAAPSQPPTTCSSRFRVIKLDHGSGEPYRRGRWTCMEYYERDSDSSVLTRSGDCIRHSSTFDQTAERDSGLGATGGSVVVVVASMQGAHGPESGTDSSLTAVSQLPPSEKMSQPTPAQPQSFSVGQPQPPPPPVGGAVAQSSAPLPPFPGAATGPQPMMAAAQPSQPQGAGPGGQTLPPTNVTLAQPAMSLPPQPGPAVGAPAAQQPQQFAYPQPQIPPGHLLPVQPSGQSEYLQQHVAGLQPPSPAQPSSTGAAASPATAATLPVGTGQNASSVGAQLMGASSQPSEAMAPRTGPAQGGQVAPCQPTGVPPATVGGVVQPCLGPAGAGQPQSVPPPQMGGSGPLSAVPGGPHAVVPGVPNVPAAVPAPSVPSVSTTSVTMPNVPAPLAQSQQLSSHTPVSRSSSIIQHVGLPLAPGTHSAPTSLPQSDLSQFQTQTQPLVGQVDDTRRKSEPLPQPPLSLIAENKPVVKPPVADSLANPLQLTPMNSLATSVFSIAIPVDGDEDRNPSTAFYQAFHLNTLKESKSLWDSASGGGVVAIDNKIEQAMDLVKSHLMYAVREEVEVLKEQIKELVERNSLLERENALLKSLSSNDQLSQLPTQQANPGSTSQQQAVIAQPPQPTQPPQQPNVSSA
UniProt Q9Y3Q8: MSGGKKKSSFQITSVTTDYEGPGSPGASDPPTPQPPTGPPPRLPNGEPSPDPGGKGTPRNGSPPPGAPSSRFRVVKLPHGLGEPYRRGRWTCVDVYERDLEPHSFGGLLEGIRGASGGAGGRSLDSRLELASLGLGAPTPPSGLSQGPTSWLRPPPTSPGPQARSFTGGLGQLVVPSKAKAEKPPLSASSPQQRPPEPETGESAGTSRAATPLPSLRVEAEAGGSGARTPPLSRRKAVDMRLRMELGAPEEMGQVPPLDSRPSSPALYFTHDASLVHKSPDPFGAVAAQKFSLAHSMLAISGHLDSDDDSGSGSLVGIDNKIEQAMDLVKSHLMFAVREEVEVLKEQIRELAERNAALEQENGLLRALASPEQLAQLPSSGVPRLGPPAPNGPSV

| binding [1] | binding [2] | Substance |
| --- | --- | --- |
| binds |  | full-length TSC22D2 with the RΦ-motif-A mutation (from UniProt O75157) |
| binds |  | full-length TSC22D4 with the RΦ-motif-A mutation (Flag TSC22D4 R71A F72A) (from UniProt Q9Y3Q8) |
| binds | binds | full-length TSC22D4 with the RΦ-motif-B mutation (Flag TSC22D4 R89A) (from UniProt Q9Y3Q8) |
| binds | binds | full-length TSC22D2 with the RΦ-motif-B mutation (from UniProt O75157) |
